Results are given in words; binding and its absence hold for the method and conditions named. In cells and extracts the contact can be indirect. Some results given as binding are weak or reduced against the parent protein; the word gives no strength. One block for each binder: values may come before it.
How the values were obtained:
[1] = target: cytochrome c, human lens epithelial cell mitochondria (human (endogenous in HLE B3)) (UniProt P99999); assay: co-IP; HLE B3 mitochondrial protein (500 ug) incubated with 20 ug anti-cytochrome c antibody for 1 h at 4 C, then with Protein A-agarose beads overnight at 4 C; washed 3 times in PBS 1 mM n-DMP; eluted by boiling in SDS loading buffer; blot probed with MsrA antibody
[2] = target: complex II 70 kDa subunit, bovine (bovine (endogenous in bovine liver)) (UniProt P31039); assay: co-IP; bovine liver tissue supernatant (500 ug) incubated overnight at 4 C with antibodies to specific subunits of complexes I-V conjugated to protein-G agarose beads; washed 4X with PBS 1 mM n-dodecyl-beta-D-maltopyranoside; eluted with 0.2 M glycine pH 2.5; blot probed with MsrA antibody
[3] = target: T1, complex III core I subunit (48 kDa), bovine (bovine (endogenous in bovine liver)) (UniProt P31800); assay: as above
T1 sequence: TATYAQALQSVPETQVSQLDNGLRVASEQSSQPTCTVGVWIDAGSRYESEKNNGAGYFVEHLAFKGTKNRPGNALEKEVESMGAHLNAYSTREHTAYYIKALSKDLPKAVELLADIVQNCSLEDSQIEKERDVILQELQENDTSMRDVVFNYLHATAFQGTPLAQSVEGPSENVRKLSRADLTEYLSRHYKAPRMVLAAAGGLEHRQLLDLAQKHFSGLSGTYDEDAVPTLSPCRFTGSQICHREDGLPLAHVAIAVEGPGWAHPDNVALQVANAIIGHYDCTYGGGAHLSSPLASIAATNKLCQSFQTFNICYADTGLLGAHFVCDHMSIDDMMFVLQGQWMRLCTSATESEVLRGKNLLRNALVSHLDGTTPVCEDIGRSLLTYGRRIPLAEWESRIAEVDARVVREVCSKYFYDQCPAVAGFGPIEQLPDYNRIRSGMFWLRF

Protein sequences, listed by entry. Tags and fused reporters are not part of them. Residues count along the entry.
UniProt P99999: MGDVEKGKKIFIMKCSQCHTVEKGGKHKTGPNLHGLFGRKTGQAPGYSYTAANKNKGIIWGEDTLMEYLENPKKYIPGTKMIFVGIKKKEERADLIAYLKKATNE
UniProt P31039, residues 44-665: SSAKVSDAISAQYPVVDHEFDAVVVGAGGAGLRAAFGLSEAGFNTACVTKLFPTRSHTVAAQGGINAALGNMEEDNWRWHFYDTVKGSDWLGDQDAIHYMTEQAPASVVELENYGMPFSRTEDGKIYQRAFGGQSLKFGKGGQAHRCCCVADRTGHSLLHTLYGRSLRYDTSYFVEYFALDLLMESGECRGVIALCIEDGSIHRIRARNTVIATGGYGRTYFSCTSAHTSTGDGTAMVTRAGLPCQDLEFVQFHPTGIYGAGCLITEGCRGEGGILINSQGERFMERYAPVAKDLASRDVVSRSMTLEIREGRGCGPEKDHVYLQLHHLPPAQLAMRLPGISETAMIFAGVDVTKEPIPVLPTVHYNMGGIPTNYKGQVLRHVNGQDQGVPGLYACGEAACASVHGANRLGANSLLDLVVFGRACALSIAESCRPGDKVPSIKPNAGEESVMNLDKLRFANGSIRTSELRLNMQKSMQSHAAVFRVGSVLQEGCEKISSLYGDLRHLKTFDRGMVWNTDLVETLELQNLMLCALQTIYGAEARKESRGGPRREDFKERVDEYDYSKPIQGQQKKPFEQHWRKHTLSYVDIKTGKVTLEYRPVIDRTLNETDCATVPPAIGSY
UniProt Q02375, residues 43-175: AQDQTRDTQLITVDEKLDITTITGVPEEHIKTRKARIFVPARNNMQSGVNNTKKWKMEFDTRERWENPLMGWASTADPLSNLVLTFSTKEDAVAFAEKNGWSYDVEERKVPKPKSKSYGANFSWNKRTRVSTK
UniProt P00829, residues 47-528: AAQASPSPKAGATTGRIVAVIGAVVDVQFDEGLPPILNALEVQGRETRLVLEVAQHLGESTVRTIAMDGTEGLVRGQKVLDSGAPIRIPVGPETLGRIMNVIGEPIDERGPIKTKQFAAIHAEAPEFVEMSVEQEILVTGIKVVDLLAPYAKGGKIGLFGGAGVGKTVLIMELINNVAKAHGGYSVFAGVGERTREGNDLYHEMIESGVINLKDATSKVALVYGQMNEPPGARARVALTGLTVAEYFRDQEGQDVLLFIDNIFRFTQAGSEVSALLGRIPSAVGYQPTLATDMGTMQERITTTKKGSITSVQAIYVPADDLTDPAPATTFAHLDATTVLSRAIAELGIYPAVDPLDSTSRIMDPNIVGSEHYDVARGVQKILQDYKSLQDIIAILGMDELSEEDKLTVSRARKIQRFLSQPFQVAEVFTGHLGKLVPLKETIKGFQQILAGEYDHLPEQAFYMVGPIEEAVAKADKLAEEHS

[4] = target: complex IV cytochrome c oxidase subunit I (57 kDa), bovine (bovine (endogenous in bovine liver)) (UniProt P00396); assay: as above
[5] = target: NDUFS4 (18 kDa), subunit of mitochondrial complex I, bovine (bovine (endogenous in bovine liver)) (UniProt Q02375); assay: as above
[6] = target: complex V ATP synthase subunit beta (56 kDa), bovine (bovine (endogenous in bovine liver)) (UniProt P00829); assay: as above

binding [1]: binds
B1: methionine sulfoxide reductase A (MsrA), human lens epithelial cell mitochondria (enzyme, UniProt Q9UJ68 24-235)
chain: GNSASNIVSPQEALPGRKEQTPVAAKHHVNGNRTVEPFPEGTQMAVFGMGCFWGAERKFWVLKGVYSTQVGFAGGYTSNPTYKEVCSEKTGHAEVVRVVYQPEHMSFEELLKVFWENHDPTQGMRQGNDHGTQYRSAIYPTSAKQMEAALSSKENYQKVLSEHGFGPITTDIREGQTFYYAEDYHQQYLSKNPNGYCGLGGTGVSCPVGIKK

binding [2]: binds
binding [3]: binds
binding [4]: binds
binding [6]: binds
B2: methionine sulfoxide reductase A (MsrA), bovine liver (enzyme, UniProt P54149 21-233)
chain: MGDSAAKIVSPQEALPGRKEPLVVAAKHHVNGNRTVEPFPEGTQMAVFGMGCFWGAERKFWTLKGVYSTQVGFAGGYTPNPTYKEVCSGKTGHAEVVRVVFQPEHISFEELLKVFWENHDPTQGMRQGNDHGSQYRSAIYPTSAEHVGAALKSKEDYQKVLSEHGFGLITTDIREGQTFYYAEDYHQQYLSKDPDGYCGLGGTGVSCPLGIKK
binding [5]: binds

— PMC2684557
